Measured values published in paper PMC5945681.
No constants are given. Whether binding was seen depends on the method and setting. Binding seen in cells or lysates may run through a third protein. Some entries that bind do so weakly or less than the wild type. For part of these data: Where a sequence is shown, tags or fusion partners need not be part of it. Blank lines part the entries; values can stand above or below the binder they belong to.

What was measured:
HA-p53 = HA-p53 (UniProt P04637); test: co-IP; HEK293T cells co-transfected with Flag-USP49 and HA-p53 (or its truncations); lysates immunoprecipitated with anti-Flag or anti-HA antibodies and protein G-agarose, 4 °C, 4 h; lysis buffer 50 mM Tris-HCl pH 7.4-7.5, 150 mM NaCl, 1 mM EDTA, 1% NP-40; immunoblot
[1] = biological target: endogenous p53 (human (endogenous in HCT116 and U2OS)) (UniProt P04637); test: co-IP; endogenous proteins; HCT116 (text: also U2OS) lysates immunoprecipitated with an anti-p53 antibody, normal IgG as negative control; cells treated with 50 μM Eto for 4 h; immunoblot with USP49- and p53-specific antibodies
GST-p53 = GST-p53 (UniProt P04637); test: pull-down; GST-p53 (and GST) bound to Sepharose beads incubated with whole-cell lysate of HCT116 cells stably expressing Flag-USP49, 1 ml RIPA buffer, 4 °C, 4 h; immunoblot; only the target purified

binding (HA-p53): binds
B1: Flag-USP49 (enzyme, UniProt Q70CQ1 1-688)
chain: MDRCKHVGRLRLAQDHSILNPQKWCCLECATTESVWACLKCSHVACGRYIEDHALKHFEETGHPLAMEVRDLYVFCYLCKDYVLNDNPEGDLKLLRSSLLAVRGQKQDTPVRRGRTLRSMASGEDVVLPQRAPQGQPQMLTALWYRRQRLLARTLRLWFEKSSRGQAKLEQRRQEEALERKKEEARRRRREVKRRLLEELASTPPRKSARLLLHTPRDAGPAASRPAALPTSRRVPAATLKLRRQPAMAPGVTGLRNLGNTCYMNSILQVLSHLQKFRECFLNLDPSKTEHLFPKATNGKTQLSGKPTNSSATELSLRNDRAEACEREGFCWNGRASISRSLELIQNKEPSSKHISLCRELHTLFRVMWSGKWALVSPFAMLHSVWSLIPAFRGYDQQDAQEFLCELLHKVQQELESEGTTRRILIPFSQRKLTKQVLKVVNTIFHGQLLSQVTCISCNYKSNTIEPFWDLSLEFPERYHCIEKGFVPLNQTECLLTEMLAKFTETEALEGRIYACDQCNSKRRKSNPKPLVLSEARKQLMIYRLPQVLRLHLKRFRWSGRNHREKIGVHVVFDQVLTMEPYCCRDMLSSLDKETFAYDLSAVVMHHGKGFGSGHYTAYCYNTEGGFWVHCNDSKLNVCSVEEVCKTQAYILFYTQRTVQGNARISETHLQAQVQSSNNDEGRPQTFS

binding [1]: binds
B2: endogenous USP49 (enzyme, UniProt Q70CQ1 1-688)
chain: MDRCKHVGRLRLAQDHSILNPQKWCCLECATTESVWACLKCSHVACGRYIEDHALKHFEETGHPLAMEVRDLYVFCYLCKDYVLNDNPEGDLKLLRSSLLAVRGQKQDTPVRRGRTLRSMASGEDVVLPQRAPQGQPQMLTALWYRRQRLLARTLRLWFEKSSRGQAKLEQRRQEEALERKKEEARRRRREVKRRLLEELASTPPRKSARLLLHTPRDAGPAASRPAALPTSRRVPAATLKLRRQPAMAPGVTGLRNLGNTCYMNSILQVLSHLQKFRECFLNLDPSKTEHLFPKATNGKTQLSGKPTNSSATELSLRNDRAEACEREGFCWNGRASISRSLELIQNKEPSSKHISLCRELHTLFRVMWSGKWALVSPFAMLHSVWSLIPAFRGYDQQDAQEFLCELLHKVQQELESEGTTRRILIPFSQRKLTKQVLKVVNTIFHGQLLSQVTCISCNYKSNTIEPFWDLSLEFPERYHCIEKGFVPLNQTECLLTEMLAKFTETEALEGRIYACDQCNSKRRKSNPKPLVLSEARKQLMIYRLPQVLRLHLKRFRWSGRNHREKIGVHVVFDQVLTMEPYCCRDMLSSLDKETFAYDLSAVVMHHGKGFGSGHYTAYCYNTEGGFWVHCNDSKLNVCSVEEVCKTQAYILFYTQRTVQGNARISETHLQAQVQSSNNDEGRPQTFS

binding (GST-p53): binds
B3: Flag-USP49 (stably expressed in HCT116 cells) (enzyme, UniProt Q70CQ1 1-688)
chain: MDRCKHVGRLRLAQDHSILNPQKWCCLECATTESVWACLKCSHVACGRYIEDHALKHFEETGHPLAMEVRDLYVFCYLCKDYVLNDNPEGDLKLLRSSLLAVRGQKQDTPVRRGRTLRSMASGEDVVLPQRAPQGQPQMLTALWYRRQRLLARTLRLWFEKSSRGQAKLEQRRQEEALERKKEEARRRRREVKRRLLEELASTPPRKSARLLLHTPRDAGPAASRPAALPTSRRVPAATLKLRRQPAMAPGVTGLRNLGNTCYMNSILQVLSHLQKFRECFLNLDPSKTEHLFPKATNGKTQLSGKPTNSSATELSLRNDRAEACEREGFCWNGRASISRSLELIQNKEPSSKHISLCRELHTLFRVMWSGKWALVSPFAMLHSVWSLIPAFRGYDQQDAQEFLCELLHKVQQELESEGTTRRILIPFSQRKLTKQVLKVVNTIFHGQLLSQVTCISCNYKSNTIEPFWDLSLEFPERYHCIEKGFVPLNQTECLLTEMLAKFTETEALEGRIYACDQCNSKRRKSNPKPLVLSEARKQLMIYRLPQVLRLHLKRFRWSGRNHREKIGVHVVFDQVLTMEPYCCRDMLSSLDKETFAYDLSAVVMHHGKGFGSGHYTAYCYNTEGGFWVHCNDSKLNVCSVEEVCKTQAYILFYTQRTVQGNARISETHLQAQVQSSNNDEGRPQTFS
